In assay [1] the target is T1, GFP–IL-36R (not stated (human or mouse cDNA cloned)) (UniProt Q9HB29).
T1 sequence: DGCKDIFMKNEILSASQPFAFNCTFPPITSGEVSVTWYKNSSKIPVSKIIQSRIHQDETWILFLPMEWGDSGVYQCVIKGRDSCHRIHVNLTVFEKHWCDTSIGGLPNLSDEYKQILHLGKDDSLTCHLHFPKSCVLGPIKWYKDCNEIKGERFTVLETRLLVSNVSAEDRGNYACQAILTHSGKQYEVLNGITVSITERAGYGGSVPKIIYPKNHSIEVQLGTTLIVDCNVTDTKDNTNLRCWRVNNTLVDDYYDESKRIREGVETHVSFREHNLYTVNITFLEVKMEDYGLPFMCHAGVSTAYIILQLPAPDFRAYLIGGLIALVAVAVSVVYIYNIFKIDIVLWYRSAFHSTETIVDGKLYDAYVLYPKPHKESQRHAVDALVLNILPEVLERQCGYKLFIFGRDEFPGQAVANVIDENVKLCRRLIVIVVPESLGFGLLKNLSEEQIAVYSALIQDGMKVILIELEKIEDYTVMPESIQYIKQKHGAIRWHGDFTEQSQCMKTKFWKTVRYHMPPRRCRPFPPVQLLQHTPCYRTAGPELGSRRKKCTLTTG
Nature of the assay: flow cytometry on cells; HeLa cells transfected with GFP–IL-36R with or without sIL-36R, 100 ng/ml His-tagged IL-36γ for 30 min, stained with phycoerythrin–anti-His antibody; only the binder purified. A general note: Flow cytometry measures light scatter and fluorescence of single cells or particles in a stream.

The chains behind the UniProt entries cited, without tags or fusion partners. Where a name states a change or a piece, a line headed by the entry shows the natural chain unless it says otherwise.
UniProt Q9NZH8: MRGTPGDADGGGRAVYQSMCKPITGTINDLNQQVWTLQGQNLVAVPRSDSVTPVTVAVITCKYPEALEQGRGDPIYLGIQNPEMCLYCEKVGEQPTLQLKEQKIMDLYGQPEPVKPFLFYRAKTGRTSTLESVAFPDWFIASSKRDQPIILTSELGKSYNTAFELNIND

A further assay deals with His-tagged IL-36γ (UniProt Q9NZH8). Nature of the assay: pull-down; lysates (RIPA buffer) of HeLa cells transfected with indicated doses of Flag-IL36R or Flag-sIL36R plasmids, 1 μg His-tagged IL-36γ added for 4 h, pulled down by anti-His beads, anti-Flag blot; only the target purified.

These are yes or no findings as the source states them, for the method shown. A result given as binding can be weak or reduced; the word gives no strength. Where a sequence is shown, tags or fusion partners need not be part of it. For some assays here: In cells and extracts the contact can be indirect.

“His-tagged IL-36γ (from UniProt Q9NZH8) (ligand)”: the binding result in assay [1] is “binds”.

B1: Flag-tagged IL-36 receptor (IL-36R) (receptor, UniProt Q9HB29 20-575)
chain: T1 sequence
Regarding B1, in the assay with His-tagged IL-36γ, the binding entry was “binds”.

The values are drawn from article PMC9663298.
